These are yes or no findings as the source states them, for the method shown. For some assays here: Binding can be weak; no strength is given. Sequences can lack the tags named with a protein.
How the values were obtained:
Test in all cases: pull-down; 20 μg GST or GST-tagged protein on Glutathione Sepharose beads; 100–200 μg purified protein added, 30 min at 4°C; 20 mM Tris-HCl pH 8.0, 200 mM NaCl, 0.5% Triton-X100; Coomassie staining or anti-MBP immunoblot; both purified
[1] = molecular target: GST-CI-MPR (aa1–164)
[2] = molecular target: GST-CI-MPR (aa21–48)
[3] = molecular target: GST-CI-MPR (aa21–56)
[4] = molecular target: GST-CI-MPR Δloop5 mutant
[5] = molecular target: GST-IGF1R tail
[6] = molecular target: GST-INS1R tail H5Y
[7] = molecular target: GST-INS1R tail
[8] = molecular target: GST-SEMA4C (aa47–65)
[9] = molecular target: GST-SEMA4C (aa47–71)
[10] = molecular target: GST-SEMA4C-tail (aa1–149)
[11] = molecular target: GST-SEMA4C-Δ4 (aa1–145)

- binding [1]: binds
- binding [2]: binds
- binding [3]: binds
- binding [4]: binds
- binding [5]: binds
- binding [6]: binds
- binding [7]: no binding
- binding [8]: binds
- binding [9]: binds
- binding [10]: binds
- binding [11]: binds
B1: MBP-SNX5^PX (domain or fragment, UniProt Q9Y5X3 20-180)
chain: SVSVDLNVDPSLQIDIPDALSERDKVKFTVHTKTTLPTFQSPEFSVTRQHEDFVWLHDTLIETTDYAGLIIPPAPTKPDFDGPREKMQKLGEGEGSMTKEEFAKMKQELEAEYLAVFKKTVSSHEVFLQRLSSHPVLSKDRNFHVFLEYDQDLSVRRKNTK
